Assay [1] deals with human CD3 on CD3-expressing cells (Jurkat, human T cells) (human) (UniProt P07766). The assay can be described thus: FACS. A general note: Flow cytometry measures light scatter and fluorescence of single cells or particles in a stream.
Assay [2] deals with human PSMA expressed with an N-terminal hexahistidine tag (6h.hPSMA, R&D) (human) (UniProt Q04609). The assay can be described thus: SPR, 37 C, antibody-capture format.
Assay [3] has the same target. The assay can be described thus: SPR (Example 3).

Chains of the proteins cited; added tags and fusions are not shown. Lines headed by an entry give the natural chain unless they say otherwise; changes in a name come on top.
UniProt P07766: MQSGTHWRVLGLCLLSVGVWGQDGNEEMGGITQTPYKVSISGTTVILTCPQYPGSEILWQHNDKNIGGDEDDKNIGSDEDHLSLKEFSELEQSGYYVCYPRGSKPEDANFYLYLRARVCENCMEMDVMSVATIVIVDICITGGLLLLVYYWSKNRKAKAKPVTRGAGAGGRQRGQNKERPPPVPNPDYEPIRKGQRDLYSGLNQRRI
UniProt Q04609: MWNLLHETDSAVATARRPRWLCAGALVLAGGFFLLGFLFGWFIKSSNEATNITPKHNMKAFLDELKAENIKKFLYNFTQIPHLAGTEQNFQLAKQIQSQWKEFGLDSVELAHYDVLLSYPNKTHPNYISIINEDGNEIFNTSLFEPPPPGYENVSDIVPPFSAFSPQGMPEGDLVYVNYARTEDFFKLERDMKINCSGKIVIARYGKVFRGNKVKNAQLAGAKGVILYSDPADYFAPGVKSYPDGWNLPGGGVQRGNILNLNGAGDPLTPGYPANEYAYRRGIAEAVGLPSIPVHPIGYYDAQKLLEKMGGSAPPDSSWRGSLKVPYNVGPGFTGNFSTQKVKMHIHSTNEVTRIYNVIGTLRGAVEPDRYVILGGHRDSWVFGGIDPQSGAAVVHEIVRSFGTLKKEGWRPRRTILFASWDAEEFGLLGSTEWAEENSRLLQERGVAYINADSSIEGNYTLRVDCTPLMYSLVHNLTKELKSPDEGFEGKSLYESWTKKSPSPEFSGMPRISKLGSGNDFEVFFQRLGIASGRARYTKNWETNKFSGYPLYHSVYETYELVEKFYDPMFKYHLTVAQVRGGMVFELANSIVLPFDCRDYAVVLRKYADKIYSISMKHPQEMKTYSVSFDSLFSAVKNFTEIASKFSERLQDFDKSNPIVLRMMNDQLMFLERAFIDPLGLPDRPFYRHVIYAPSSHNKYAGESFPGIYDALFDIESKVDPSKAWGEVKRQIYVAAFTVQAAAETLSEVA

No constants are given. Whether binding was seen depends on the method and setting. Some entries that bind do so weakly or less than the wild type.

Experimental findings from patent US20190127480A1 are described below.

B1: CD3-VH-G (antibody, V domains shown)
VH: EVQLVESGGGLVQPGRSLRLSCAASGFTFDDYSMHWVRQAPGKGLEWVSGISWNSGSKGYADSVKGRFTISRDNAKNSLYLQMNSLRAEDTALYYCAKYGSGYGKFYHYGLDVWGQGTTVTVSS
VL: DIQMTQSPSSLSASVGDSVTITCRASQSINNYLNWYQQKPGKAPKLLIYTASSLLSGVPSRFSGSGSGTDFTLTISGLHPEDFATYFCQQSFSTPPITFGQGTRLDIK
With B1, in assay [1], the binding entry is “binds”.

B2: H1H11810P2 (antibody, human IgG1, V domains shown)
VH: QVQLVESGGGVVQPGRSLRLSCAASGFTFSSYGMHWVRQAPGKGLEWVAVISYAGNNKYYADSVKGRFTVSRDNSKKTLYLQMNSLRSEDTAVYYCAKDSYYDFLTDPDVLDIWGQGTMVTVSS
VL: B1 VL
As to B2, the binding entry in assay [2] and in assay [3] was “binds” each time.
